The chains are these.
T1: Mrc1-YFP (S. cerevisiae) (UniProt P25588)
T1 sequence: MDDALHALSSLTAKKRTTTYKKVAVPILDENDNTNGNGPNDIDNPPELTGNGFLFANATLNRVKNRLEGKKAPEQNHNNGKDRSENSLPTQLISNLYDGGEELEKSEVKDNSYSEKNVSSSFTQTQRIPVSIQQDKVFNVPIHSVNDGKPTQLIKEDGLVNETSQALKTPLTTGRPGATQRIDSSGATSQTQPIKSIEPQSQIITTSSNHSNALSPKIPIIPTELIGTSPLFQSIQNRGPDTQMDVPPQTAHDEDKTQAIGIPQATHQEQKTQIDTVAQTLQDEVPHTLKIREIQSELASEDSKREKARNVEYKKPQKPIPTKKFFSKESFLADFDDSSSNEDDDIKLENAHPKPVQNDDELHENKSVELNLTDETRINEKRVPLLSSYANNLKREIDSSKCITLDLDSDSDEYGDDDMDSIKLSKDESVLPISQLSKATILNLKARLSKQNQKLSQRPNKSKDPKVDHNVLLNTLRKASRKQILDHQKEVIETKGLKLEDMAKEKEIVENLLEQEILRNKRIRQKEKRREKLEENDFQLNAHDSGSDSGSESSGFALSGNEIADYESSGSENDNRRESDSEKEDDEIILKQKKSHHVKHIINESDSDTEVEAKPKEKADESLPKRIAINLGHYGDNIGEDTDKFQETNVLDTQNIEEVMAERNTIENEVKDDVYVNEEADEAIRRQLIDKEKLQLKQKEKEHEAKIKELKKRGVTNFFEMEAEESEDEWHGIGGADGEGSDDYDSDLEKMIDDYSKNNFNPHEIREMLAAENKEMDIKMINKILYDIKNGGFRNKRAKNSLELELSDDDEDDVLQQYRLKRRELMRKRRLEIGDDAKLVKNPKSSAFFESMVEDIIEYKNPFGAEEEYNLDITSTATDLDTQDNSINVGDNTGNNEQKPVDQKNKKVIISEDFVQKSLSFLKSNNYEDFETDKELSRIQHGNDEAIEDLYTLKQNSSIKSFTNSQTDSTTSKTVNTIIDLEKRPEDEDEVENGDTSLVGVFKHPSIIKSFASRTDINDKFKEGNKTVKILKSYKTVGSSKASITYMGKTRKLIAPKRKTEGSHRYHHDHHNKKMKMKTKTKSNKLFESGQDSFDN

B1: Pol12 (protein, UniProt P38121 1-705)
chain: MSGSIDVITHFGPDADKPEIITALENLTKLHALSVEDLYIKWEQFSNQRRQTHTDLTSKNIDEFKQFLQLQMEKRANQISSSSKVNTSTKKPVIKKSLNSSPLFGLSIPKTPTLKKRKLHGPFSLSDSKQTYNVGSEAETNEKGNSSLKLEFTPGMAEDAVGDSAPLSHAKSSDAKTPGSSTFQTPTTNTPTTSRQNVPAGEILDSLNPENIEISSGNPNVGLLSTEEPSYNQVKVEPFYDAKKYKFRTMRQNLQEASDVLDDQIESFTKIIQNHYKLSPNDFADPTIQSQSEIYAVGRIVPDSPTYDKFLNPESLSLETSRMGGVGRRVRLDLSQVNELSFFLGQIVAFKGKNANGDYFTVNSILPLPYPNSPVSTSQELQEFQANLEGSSLKVIVTCGPYFANDNFSLELLQEFIDSINNEVKPHVLIMFGPFIDITHPLIASGKLPNFPQFKTQPKTLDELFLKLFTPILKTISPHIQTVLIPSTKDAISNHAAYPQASLIRKALQLPKRNFKCMANPSSFQINEIYFGCSNVDTFKDLKEVIKGGTTSSRYRLDRVSEHILQQRRYYPIFPGSIRTRIKPKDVSTKKETNDMESKEEKVYEHISGADLDVSYLGLTEFVGGFSPDIMIIPSELQHFARVVQNVVVINPGRFIRATGNRGSYAQITVQCPDLEDGKLTLVEGEEPVYLHNVWKRARVDLIAS
B2: Pol1 (protein, UniProt P13382 1-1468)
chain: MSSKSEKLEKLRKLQAARNGTSIDDYEGDESDGDRIYDEIDEKEYRARKRQELLHDDFVVDDDGVGYVDRGVEEDWREVDNSSSDEDTGNLASKDSKRKKNIKREKDHQITDMLRTQHSKSTLLAHAKKSQKKSIPIDNFDDILGEFESGEVEKPNILLPSKLRENLNSSPTSEFKSSIKRVNGNDESSHDAGISKKVKIDPDSSTDKYLEIESSPLKLQSRKLRYANDVQDLLDDVENSPVVATKRQNVLQDTLLANPPSAQSLADEEDDEDSDEDIILKRRTMRSVTTTRRVNIDSRSNPSTSPFVTAPGTPIGIKGLTPSKSLQSNTDVATLAVNVKKEDVVDPETDTFQMFWLDYCEVNNTLILFGKVKLKDDNCVSAMVQINGLCRELFFLPREGKTPTDIHEEIIPLLMDKYGLDNIRAKPQKMKYSFELPDIPSESDYLKVLLPYQTPKSSRDTIPSDLSSDTFYHVFGGNSNIFESFVIQNRIMGPCWLDIKGADFNSIRNASHCAVEVSVDKPQNITPTTTKTMPNLRCLSLSIQTLMNPKENKQEIVSITLSAYRNISLDSPIPENIKPDDLCTLVRPPQSTSFPLGLAALAKQKLPGRVRLFNNEKAMLSCFCAMLKVEDPDVIIGHRLQNVYLDVLAHRMHDLNIPTFSSIGRRLRRTWPEKFGRGNSNMNHFFISDICSGRLICDIANEMGQSLTPKCQSWDLSEMYQVTCEKEHKPLDIDYQNPQYQNDVNSMTMALQENITNCMISAEVSYRIQLLTLTKQLTNLAGNAWAQTLGGTRAGRNEYILLHEFSRNGFIVPDKEGNRSRAQKQRQNEENADAPVNSKKAKYQGGLVFEPEKGLHKNYVLVMDFNSLYPSIIQEFNICFTTVDRNKEDIDELPSVPPSEVDQGVLPRLLANLVDRRREVKKVMKTETDPHKRVQCDIRQQALKLTANSMYGCLGYVNSRFYAKPLAMLVTNKGREILMNTRQLAESMNLLVVYGDTDSVMIDTGCDNYADAIKIGLGFKRLVNERYRLLEIDIDNVFKKLLLHAKKKYAALTVNLDKNGNGTTVLEVKGLDMKRREFCPLSRDVSIHVLNTILSDKDPEEALQEVYDYLEDIRIKVETNNIRIDKYKINMKLSKDPKAYPGGKNMPAVQVALRMRKAGRVVKAGSVITFVITKQDEIDNAADTPALSVAERAHALNEVMIKSNNLIPDPQYYLEKQIFAPVERLLERIDSFNVVRLSEALGLDSKKYFRREGGNNNGEDINNLQPLETTITDVERFKDTVTLELSCPSCDKRFPFGGIVSSNYYRVSYNGLQCKHCEQLFTPLQLTSQIEHSIRAHISLYYAGWLQCDDSTCGIVTRQVSVFGKRCLNDGCTGVMRYKYSDKQLYNQLLYFDSLFDCEKNKKQELKPIYLPDDLDYPKEQLTESSIKALTEQNRELMETGRSVVQKYLNDCGRRYVDMTSIFDFMLN
B3: Rpn8 (protein, UniProt Q08723 1-338)
chain: MSLQHEKVTIAPLVLLSALDHYERTQTKENKRCVGVILGDANSSTIRVTNSFALPFEEDEKNSDVWFLDHNYIENMNEMCKKINAKEKLIGWYHSGPKLRASDLKINELFKKYTQNNPLLLIVDVKQQGVGLPTDAYVAIEQVKDDGTSTEKTFLHLPCTIEAEEAEEIGVEHLLRDVRDQAAGGLSIRLTNQLKSLKGLQSKLKDVVEYLDKVINKELPINHTILGKLQDVFNLLPNLGTPDDDEIDVENHDRINISNNLQKALTVKTNDELMVIYISNLVRSIIAFDDLIENKIQNKKIQEQRVKDKQSKVSDDSESESGDKEATAPLIQRKNKKN
B4: Dpb2 (protein, UniProt P24482 1-689)
chain: MFGSGNVLPVKIQPPLLRPLAYRVLSRKYGLSIKSDGLSALAEFVGTNIGANWRQGPATIKFLEQFAAVWKQQERGLFIDQSGVKEVIQEMKEREKVEWSHEHPIQHEENILGRTDDDENNSDDEMPIAADSSLQNVSLSSPMRQPTERDEYKQPFKPESSKALDWRDYFKVINASQQQRFSYNPHKMQFIFVPNKKQNGLGGIAGFLPDIEDKVQMFLTRYYLTNDRVMRNENFQNSDMFNPLSSMVSLQNELSNTNRQQQSSSMSITPIKNLLGRDAQNFLLLGLLNKNFKGNWSLEDPSGSVEIDISQTIPTQGHYYVPGCMVLVEGIYYSVGNKFHVTSMTLPPGERREITLETIGNLDLLGIHGISNNNFIARLDKDLKIRLHLLEKELTDHKFVILGANLFLDDLKIMTALSKILQKLNDDPPTLLIWQGSFTSVPVFASMSSRNISSSTQFKNNFDALATLLSRFDNLTENTTMIFIPGPNDLWGSMVSLGASGTLPQDPIPSAFTKKINKVCKNVVWSSNPTRIAYLSQEIVIFRDDLSGRFKRHRLEFPFNESEDVYTENDNMMSKDTDIVPIDELVKEPDQLPQKVQETRKLVKTILDQGHLSPFLDSLRPISWDLDHTLTLCPIPSTMVLCDTTSAQFDLTYNGCKVINPGSFIHNRRARYMEYVPSSKKTIQEEIYI
B5: Pri2 (protein, UniProt P20457 1-528)
chain: MFRQSKRRIASRKNFSSYDDIVKSELDVGNTNAANQIILSSSSSEEEKKLYARLYESKLSFYDLPPQGEITLEQFEIWAIDRLKILLEIESCLSRNKSIKEIETIIKPQFQKLLPFNTESLEDRKKDYYSHFILRLCFCRSKELREKFVRAETFLFKIRFNMLTSTDQTKFVQSLDLPLLQFISNEEKAELSHQLYQTVSASLQFQLNLNEEHQRKQYFQQEKFIKLPFENVIELVGNRLVFLKDGYAYLPQFQQLNLLSNEFASKLNQELIKTYQYLPRLNEDDRLLPILNHLSSGYTIADFNQQKANQFSENVDDEINAQSVWSEEISSNYPLCIKNLMEGLKKNHHLRYYGRQQLSLFLKGIGLSADEALKFWSEAFTRNGNMTMEKFNKEYRYSFRHNYGLEGNRINYKPWDCHTILSKPRPGRGDYHGCPFRDWSHERLSAELRSMKLTQAQIISVLDSCQKGEYTIACTKVFEMTHNSASADLEIGEQTHIAHPNLYFERSRQLQKKQQKLEKEKLFNNGNH
B6: Ctf4 (protein, UniProt Q01454 1-927)
chain: MVSVIDKLVFDFGGKTLVSLAPDNNTLCVANKNGLTKILKTNNPEEEPETLDSSKLVSSIKCYSNSHFLMTTMQGDALRYNIDSSQEELLARFALPLRDCCVIHSGKMAVFGGDDLELILLELDDETHKKHAIKIDEQVSQISYNSQMNILAVSMINGKVQIFSLTSTIPNKVHELNDYIVANSYDDTHRDKILSNMMDDIDKDNDNDLSETADPDENNVADPEFCAANRICTRVAWHPKGLHFALPCADDTVKIFSIKGYSLQKTLSTNLSSTKAHFIDLQFDPLRGTYIAAVDLNNKLTVWNWETSEIHYTREFKRKITNIAWKIQADSKTLDLVLGTWSGSIAIVQNLAESVVSNIPDQSVAESSTKHGLFVDSESDLENLEGNDDINKSDKLFSDITQEANAEDVFTQTHDGPSGLSEKRKYNFEDEEDFIDDDDGAGYISGKKPHNEHSYSRVHKTHSFPISLANTGKFRYMPFSPAGTPFGFTDRRYLTMNEVGYVSTVKNSEQYSITVSFFDVGRFREYHFEDLFGYDLCFLNEKGTLFGQSKTGQIQYRPHDSIHSNWTKIIPLQAGERITSVAATPVRVIVGTSLGYFRSFNQFGVPFAVEKTSPIVALTAQNYRVFSVHYSQFHGLSYSLSELGTSSKRYYKRECPLPMSLPNINSDMKKDANLDYYNFNPMGIKSLFFSSYGDPCIFGSDNTLLLLSKWRSPEESKWLPILDSNMEIWKMSGGKETTDIHVWPLALAYDTLNCILVKGKHIWPEFPLPLPSEMEIRMPVFVKSKLLEENKAILNKKNEIGADTEAEEGEEDKEIQIPVSMAAEEEYLRSKVLSELLTDTLENDGEMYGNENEVLAALNGAYDKALLRLFASACSDQNVEKALSLAHELKQDRALTAAVKISERAELPSLVKKINNIREARYEQQLK
B7: Pri1 (protein, UniProt P10363 1-409)
chain: MTNSVKTNGPSSSDMEYYYKSLYPFKHIFNWLNHSPKPSRDMINREFAMAFRSGAYKRYNSFNSVQDFKAQIEKANPDRFEIGAIYNKPPRERDTLLKSELKALEKELVFDIDMDDYDAFRTCCSGAQVCSKCWKFISLAMKITNTALREDFGYKDFIWVFSGRRGAHCWVSDKRARALTDVQRRNVLDYVNVIRDRNTDKRLALKRPYHPHLARSLEQLKPFFVSIMLEEQNPWEDDQHAIQTLLPALYDKQLIDSLKKYWLDNPRRSSKEKWNDIDQIATSLFKGPKQDSHIIKLRECKEDLVLMTLYPKLDVEVTKQTIHLLKAPFCIHPATGNVCVPIDESFAPEKAPKLIDLQTEMEKNNDVSLTALQPFINQFQAYVSSLLKNELGSVKREREDDDEPASLDF

Results are given in words; binding and its absence hold for the method and conditions named. Binding seen in cells or lysates may run through a third protein. Here binding means that the protein was enriched with, or labelled near, the bait; the list need not be complete. Tags and fused reporters may be left off the sequences shown.

The assay has as its target T1, Mrc1-YFP (S. cerevisiae). Description: affinity purification with mass spectrometry.
Consider B1, for which the binding entry is listed as “binds”.

Consider B2, for which the binding entry is “binds”.

Consider B3, for which the binding result is reported as “binds”.

Regarding B4, the binding entry is reported as “binds”.

In the case of B5, the binding result is given as “binds”.

Take B6: the binding result is on record as “binds”.

Turning to B7, the binding entry was “binds”.

The values above are taken from article doi:10.1101/2021.09.16.460581.
